Assay results as given in patent US9789156B2, “Combination anti-human epidermal growth factor receptor 2 (anti-HER2) cancer therapy using mucin 1 (MUC1) peptides and hemotherapeutics” (DANA-FARBER CANCER INSTITUTE, INC., priority 2013, dated 2017).
Not every detail of the peptide structures is certain; ends, links or a residue may be inferred. Square brackets hold non-standard residues; d marks the D form. Peptide text beside a SMILES is read from it.

Chains of the proteins cited; added tags and fusions are not shown. Residues count along the entry.
UniProt P15941, 1098-1255 limits assumed: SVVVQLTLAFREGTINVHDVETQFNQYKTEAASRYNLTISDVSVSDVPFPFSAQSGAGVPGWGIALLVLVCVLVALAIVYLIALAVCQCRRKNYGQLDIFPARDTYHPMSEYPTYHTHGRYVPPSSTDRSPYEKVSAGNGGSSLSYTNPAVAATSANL

How the values were obtained:
SKBR3R cells [1] = assay: Cell number by Trypan blue staining; format: cell-based, human; conditions: 5 mM GO-203
p-HER2 (HER2 activation) [2] = assay: Immunoblot of lysates, BT474R cells; format: cell-based, human; conditions: 5 mM GO-203
cyclin E [3] = assay: Immunoblot of lysates, BT474R cells; format: cell-based, human; conditions: 5 mM GO-203
BT474 cells = assay: Cell number by Trypan blue staining; format: cell-based, human; conditions: 5 mM GO-203
AKT activation (p-AKT) = assay: Immunoblot of lysates, SKBR3R cells; format: cell-based, human; conditions: 5 mM GO-203
phospho-p27 [4] = assay: Immunoblot of lysates, BT474R cells; format: cell-based, human; conditions: 5 mM GO-203
SKBR3 cells = assay: Cell number by Trypan blue staining; format: cell-based, human; conditions: 5 mM GO-203
MUC1-C/HER2 complexes [5] = target: T1, MUC1-C/HER2 complexes (Homo sapiens, UniProt P15941); assay: Anti-MUC1-C immunoprecipitation, anti-HER2 immunoblot, SKBR3 cells; format: cell-based; conditions: 5 mM peptide, 48 h
T1 construct: undergoes autocleavage into N-terminal (MUC1-N) and C-terminal (MUC1-C) fragments; endogenous in cells; host or cells: SKBR3, BT474 (ATCC); trastuzumab-resistant SKBR3R, BT474R

p-HER2 (HER2 activation) [6] = assay: Immunoblot of lysates, BT474 cells; format: cell-based, human; conditions: 5 mM peptide, 48 h
BT474R cells [7] = assay: Cell number by Trypan blue staining; format: cell-based, human; conditions: 5 mM GO-203
p-HER3 = assay: Immunoblot of lysates, SKBR3R cells; format: cell-based, human; conditions: 5 mM GO-203
MUC1-C/HER2 complexes [8] = target: T1, MUC1-C/HER2 complexes; assay: Anti-MUC1-C immunoprecipitation, anti-HER2 immunoblot, BT474 cells; format: cell-based; conditions: 5 mM peptide, 48 h
SKBR3R cells [9] = format: cell-based, human
Procedure: (§1) Cell culture. SKBR3 and BT474 cells were obtained from ATCC (Rockville, Md.). SKBR3 and BT474 were maintained in McCoy's 5a modified medium and Dulbecco's modified Eagle medium/Ham F12 (1:1) supplemented with 10% heat-inactivated FBS, 100 units/ml penicillin, […] streptomycin, and 2 mM L-glutamine. […] Cells were treated with GO-203 and CP-2 peptides (AnaSpec). […] Viability was determined by trypan blue exclusion.
(§2) Determination of IC50 and synergism. Cells were seeded on 96-well plates in 100 μl of growth medium at a density of 3000 cells per well. After 24 h, the cells were exposed to drugs in treatment medium for an additional 72 h. Cell viability was assessed using the alamar blue viability assay (Invitrogen). Triplicate wells of each treatment were analyzed and each experiment was done three times. The IC50 values were determined by nonlinear regression of the dose-response data using Prism 5.0 for Mac OSX (GraphPad Software). […] Cell viability was determined after treatment for 72 h. The combination index (CI) was calculated to determine the presence of synergism (CI<1) or antagonism (CI>1) using CalcuSyn software (Biosoft).
(§3) Assessment of drug interaction by Bliss independence. […] Using this equation, if the experimentally measured inhibition is greater than Ei, then the combination is synergistic.38 Plots were generated by Prism GraphPad software.

BT474R cells [10] = format: cell-based, human; conditions: GO-203 IC50 alone vs with trastuzumab
Procedure: as §1, §2, §3

cyclin E [11] = assay: Immunoblot of lysates, SKBR3R cells; format: cell-based, human; conditions: 5 mM GO-203
p-HER2 (HER2 activation) [12] = assay: Immunoblot of lysates, SKBR3 cells; format: cell-based, human; conditions: 5 mM peptide, 48 h
BT474R tumor xenografts = assay: Trastuzumab-resistant BT474R tumor xenograft model; format: in vivo, BALB/c nu/nu mice; conditions: 7.5 mg/kg GO-203 intravenously each day for 21 days
Procedure: FIGS. 5A-G. Targeting MUC1-C in trastuzumab-resistant cells suppresses HER3 activation and inhibits growth and clonogenic survival. (FIG. 5A) Lysates from the indicated SKBR3R (left) and BT474R (right) cells were immunoblotted (IB) with anti-p-HER3 and anti-HER3. (FIG. 5B) The indicated SKBR3R (left) and BT474R (right) cells were seeded at 4000 and 1000 cells per well, respectively, and incubated for 12 days. The colony number is expressed as the mean±s.e. of three replicates. (FIG. 5C) SKBR3R cells were treated with […] GO-203 for the indicated times. Lysates were immunoblotted with the indicated antibodies. (FIG. 5D) SKBR3R cells were left untreated (Control; CTL) or treated with […] GO-203 for the indicated times. Cell number (mean±s.e. of three determinations) was determined by Trypan blue staining. (FIG. 5E) BT474R cells were treated with […] GO-203 for the indicated times. Lysates were immunoblotted with the indicated antibodies. (FIG. 5F) BT474R cells were left untreated (Control; CTL) or treated with […] GO-203 for the indicated times. Cell number (mean±s.e. of three determinations) was determined by Trypan blue staining. […] The results are expressed as tumor volume (mean±s.e. for the eight mice in each group).
Trastuzumab-resistant BT474R tumor xenograft model. […] Tumor volumes were calculated as described (Raina et al., 2011).

MUC1-C/HER2 complexes [13] = target: T1, MUC1-C/HER2 complexes; assay: Anti-MUC1-C immunoprecipitation, anti-HER2 immunoblot, SKBR3R cells; format: cell-based; conditions: 5 mM GO-203
p-HER2 (HER2 activation) [14] = assay: Immunoblot of lysates, SKBR3R cells; format: cell-based, human; conditions: 5 mM GO-203
phospho-p27 [15] = assay: Immunoblot of lysates, SKBR3R cells; format: cell-based, human; conditions: 5 mM GO-203

## N=C(N)NCCC[C@@H](N)C(=O)N[C@H](CCCNC(=N)N)C(=O)N[C@H](CCCNC(=N)N)C(=O)N[C@H](CCCNC(=N)N)C(=O)N[C@H](CCCNC(=N)N)C(=O)N[C@H](CCCNC(=N)N)C(=O)N[C@H](CCCNC(=N)N)C(=O)N[C@H](CCCNC(=N)N)C(=O)N[C@H](CCCNC(=N)N)C(=O)N[C@H](CS)C(=O)N[C@H](CCC(N)=O)C(=O)N[C@H](CS)C(=O)N[C@H](CCCNC(=N)N)C(=O)N[C@H](CCCNC(=N)N)C(=O)N[C@H](CCCCN)C(=O)N[C@H](CC(N)=O)C(=O)O [GO-203] (H-[dR][dR][dR][dR][dR][dR][dR][dR][dR][dC][dQ][dC][dR][dR][dK][dN]-OH)
SKBR3R cells [1]
  cell growth (cell number): inhibition of growth
p-HER2 (HER2 activation) [2]
  HER2 activation: suppressed HER2 activation
Cyclin E [3]
  cyclin E levels: decreases
BT474 cells
  cell growth (cell number): inhibition of growth
AKT activation (p-AKT)
  activation of the downstream effector AKT: suppressed
phospho-p27 [4]
  phospho-p27 levels: decreases
SKBR3 cells
  cell growth (cell number): inhibition of growth
MUC1-C/HER2 complexes [5]
  interaction between MUC1-C and HER2 (abundance of MUC1-C/HER2 complexes): disrupted the interaction
p-HER2 (HER2 activation) [6]
  decreased HER2 activation (p-HER2 levels): decreased HER2 activation
BT474R cells [7]
  cell growth in vitro (cell number): arrest of growth
p-HER3
  p-HER3 abundance: suppressed p-HER3 abundance
MUC1-C/HER2 complexes [8]
  blocked the interaction between MUC1-C and HER2: blocked the interaction
SKBR3R cells [9]; 72 h, GO-203 alone, trastuzumab alone at 40 nM, or both
  cell growth inhibition, in words: effective in inhibiting growth
SKBR3R cells [9]; GO-203 IC50 alone vs with trastuzumab
  Fold change: 1.55
BT474R cells [10]
  Fold change: 1.42
Cyclin E [11]
  cyclin E abundance: downregulation of cyclin E abundance
p-HER2 (HER2 activation) [12]
  decreases HER2 activation (p-HER2 levels): decreases HER2 activation
BT474R tumor xenografts
  tumor growth (tumor volume): arrest of growth
MUC1-C/HER2 complexes [13]
  MUC1-C/HER2 complexes: disruption of MUC1-C/HER2 complexes
p-HER2 (HER2 activation) [14]
  HER2 activation: suppressed HER2 activation
phospho-p27 [15]
  p27 abundance: absence of apparent changes
  phosphorylation of p27: decreased
